Laboratory results: PubChem BioAssay AID2417 (National Center for Advancing Translational Sciences (NCATS), 2010)
Among all 140,000 compounds or so, about 4,300 (3.1%) were called active. The shares of active, inactive and inconclusive entries below differ from those in the screen.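 The calls were made as follows: active = readout at or below -70, meaning at least 70% loss of cells showing the perinucleolar compartment, a nuclear body marking cancer cells; inconclusive = readout between -30 and a set limit; inactive = the rest.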

Assay: High Content Assay for Compounds that inhibit the Assembly of the Perinucleolar Compartment;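 also: plate controls were DMSO wells for no effect and camptothecin positive control wells for full effect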
Conditions: PC3M PTB-GFP, PNC prevalence imaging, 16 h; at 10 µM; hits give low values
Procedure, shortened: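 Compounds are pinned in duplicate onto adhered PC3M cells stably expressing GFP-tagged PTB and incubated 16 h at 37 C. Cells are then fixed, nuclei stained with Hoechst, and PNC-positive cells counted.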

SMILES	activity change (PNC), negative = inhibition
Cc1ccc(S(=O)(=O)CC(=O)N(C)C)cc1	active: -100%
CCOC(=O)c1ccc(NC(=O)CN2C(=O)CSC2=O)cc1	active: -90.1%
CCOc1ccc(NC(=O)C2CC=CCC2C(=O)O)cc1 (stereo not given)	inactive: -15.3%
CCn1c(SCC(=O)Nc2cc(OC)ccc2OC)nnc1C1CCCCC1	inconclusive: -47.4%
CSc1cccc(NC(C)=O)c1	inconclusive: -33.6%
COc1cc(C(C)=O)ccc1Oc1ncnc2c1cnn2-c1ccc(F)cc1	inconclusive: -58.7%
O=S(=O)(CCSc1nc2ccccc2o1)c1nc2ccccc2s1	inconclusive: -31%
CCCCC(=O)Nc1nc(C)c(-c2csc(Nc3cc(Cl)ccc3OC)n2)s1	inactive: 11.3%
O=C(O)c1nn(-c2ccccc2)ccc1=O	inactive: -1.9%
COc1ccc(NC(=O)Cn2nc(Cc3cccnc3)c3ccccc3c2=O)cc1OC	inconclusive: -49%
O=C(O)c1oc2ccccc2c1-n1cccc1	inconclusive: -67.7%
CN(CCOCCOc1ccc2ccccc2c1)Cc1ccccc1	inconclusive: -35.7%
CCn1c(SCC(=O)N2c3ccccc3Sc3ccccc32)nc2c1c(=O)n(C)c(=O)n2C	inactive: 27.9%
COc1cccc(-c2ccc(-c3noc(-c4ccccc4F)n3)c(OC)n2)c1	inconclusive: -73.3%
CC(NC(=O)c1cccc(C(F)(F)F)c1)C1CCCO1 (stereo not given)	inconclusive: -79.2%
N#Cc1c(SCC(N)=O)nsc1SCc1ccccc1Cl	inactive: -3.97%
CCCC(C)NC(=O)c1ccc(C2SCC(=O)N2Cc2ccco2)cc1 (stereo not given)	inactive: -10.1%
Cc1cnnc2c1-c1nonc1CC2	inactive: 7.85%
COc1ccc(C(=O)COC(=O)CCN2C(=O)C3C4CC(C(Br)C4Br)C3C2=O)cc1 (stereo not given)	inactive: 35%
O=C(c1ccccc1)N1CN2CN(C(=O)c3ccccc3)CC([N+](=O)[O-])(C2)C1	inactive: 40%

SMILES	activity change (PNC), negative = inhibition
Cc1noc(C)c1S(=O)(=O)N1CCCC(C(=O)NCCc2ccccc2)C1 (stereo not given)	inconclusive: -40%
CCOC(=O)c1ccoc1CSCc1ccc(C(=O)OC)o1	inconclusive: -56.6%
COc1ccc(S(=O)(=O)N2CCCC2C(=O)Nc2ccc(C(C)=O)cc2)cc1 (stereo not given)	inconclusive: -34.5%
O=C(C1CCN(S(=O)(=O)c2cnc[nH]2)CC1)N1CCN(c2ncccn2)CC1	inconclusive: -69.5%
c1ccc2[nH]c(SCc3cscn3)nc2c1	active: -103%
Cc1nn(C)c(C(=O)N/N=C/c2ccccc2)c1[N+](=O)[O-]	inconclusive: -39.1%
COc1ccccc1-n1cnc2cc(NCc3ccco3)ccc21	inconclusive: -44.6%
Cc1ccccc1NC(=S)NCC(c1cccnc1)N1CCOCC1 (stereo not given)	inconclusive: -63.1%
O=C(COC(=O)Cc1ccsc1)Nc1ccc(S(=O)(=O)N2CCOCC2)cc1	inconclusive: -41.7%
O=C(O)c1ccc(O)c(N2C(=O)Nc3ccccc3N2O)c1	inactive: 3.19%
COc1ccc(NC(=O)CSc2nnc(N)s2)cc1	inconclusive: -54%
Cn1c2c(c(=O)n(C)c1=O)C(c1cc3c(cc1Br)OCO3)CC(=O)N2 (stereo not given)	inconclusive: -45.2%
CN(C)S(=O)(=O)Oc1ccsc1C(=O)Nc1ccc(Cl)cc1	inconclusive: -55.7%
CCOC(=O)CNS(=O)(=O)c1c(C)noc1C	inconclusive: -45.1%
CCn1c(SCC(=O)Nc2nnc(C)s2)nc2c(c1=O)SC(C)C2 (stereo not given)	inconclusive: -62.9%
COc1ccc(-c2nnc(SCc3ccccn3)n2C)cc1	inconclusive: -50.7%
CC(C)(C)NC(=O)c1cccc(NC(=O)c2ccco2)c1	active: -100%
COc1ccc(CCn2c(=N)c(C(=O)N3CCN(C)CC3)cc3c(=O)n4ccccc4nc32)cc1	inconclusive: -56.7%
CN1C(=O)C2(c3ccccc31)N(C)CC(c1ccccc1)C21SC(=S)N(Cc2ccco2)C1=O (stereo not given)	inconclusive: -38.1%
O=C(C1COc2ccccc2O1)N1CCOCC1 (stereo not given)	inconclusive: -79.7%

SMILES	activity change (PNC), negative = inhibition
O=S(=O)(Nc1ccc2c(c1)OCCO2)c1ccc2oc3ccccc3c2c1	inactive: 38.2%
O=C(NC1CC1)c1ccc(CSCc2cccc(F)c2)o1	active: -106%
COCc1c(C#N)c(NCCc2ccccc2)nc(C)c1[N+](=O)[O-]	inconclusive: -50.3%
COc1ccc(C(=O)Oc2cc(OC)cc(OC)c2C(C)=O)cc1	inactive: 17.3%
CCCCOc1ccc(-n2nc(C)cc2C)nn1	inconclusive: -33.5%
C=CCNCCCOc1ccc(C)cc1Br	inconclusive: -59%
CC(CCc1ccccc1)NC(=O)C1CCN(S(=O)(=O)N2CCOCC2)CC1 (stereo not given)	inactive: 21.5%
COc1ccc(OC)c(C(=O)CSc2nnc(Cc3cccs3)n2C)c1	inconclusive: -75.6%
Cc1cccc(NC(=O)c2sc3nc(N)c(C#N)cc3c2N)c1	inconclusive: -43.2%
CCn1c(C)c(C(C)=O)c(N2CCN(c3cccc(Cl)c3)CC2)nc1=S	inactive: 6.12%
Clc1cccc(-c2cc3nc4c(c(N5CCN(c6cnccn6)CC5)n3n2)CCCC4)c1	active: -100%
Brc1cccc(-c2nnc(-c3ccccc3)o2)c1	inconclusive: -44.6%
CCC(CC)C(=O)Nc1cccc(C(=O)Nc2nccs2)c1	inactive: -4.49%
COc1ccc(-n2cnc(N)c2C(=O)c2cccc([N+](=O)[O-])c2)cc1	inconclusive: -74.4%
CCCOc1ccc(N)cc1N	active: -128%
Cc1ccc(S(=O)(=O)Cn2nnnc2C(C(C)C)N2CCc3ccccc3C2)cc1 (stereo not given)	inconclusive: -30.5%
CCOc1nc(-c2ccccc2)ccc1-c1noc(COc2ccccc2)n1	inconclusive: -66.1%
NCCCC[C@@H]1NC(=O)[C@H](CCC(=O)O)NC(=O)c2cc([N+](=O)[O-])cc(I)c2OCC[C@@H](C(N)=O)NC1=O	inactive: 46.3%
O=S(=O)(c1cccs1)N1CCc2ccccc2C1	inconclusive: -34.8%
Oc1nc(Nc2ccc(Cl)cc2Cl)sc1/C=C1\C=Nc2ccccc21	inconclusive: -45.2%

Single entries from above.
`CC(CCc1ccccc1)NC(=O)C1CCN(S(=O)(=O)N2CCOCC2)CC1` (stereo not given) – activity change (PNC), negative = inhibition: inactive: 21.5%
`C=CCNCCCOc1ccc(C)cc1Br` – activity change (PNC), negative = inhibition: inconclusive: -59%
`CCC(CC)C(=O)Nc1cccc(C(=O)Nc2nccs2)c1` – activity change (PNC), negative = inhibition: inactive: -4.49%
